Test results published in patent publication EP1067141A1, “A male-specific protein homologue involved in histocompatibility” (Rijksuniversiteit te Leiden, priority 1999, dated 2001).
At least one peptide structure holds a part that was inferred or is arguable (an end, a ring closure or a residue). Where a SMILES comes first, the peptide text is derived from it.

Test system: CTL clone HLA-A1 HY
Test: 51Cr-release assay: lysis of peptide loaded EBV-LCL target cells by CTL clone HLA-A1 HY
Assay type: cell-based, human
Details: female HLA-A1 positive EBV-LCL cells; various peptide concentrations; figure 6a

CC[C@H](C)[C@H](N)C(=O)N[C@H](C(=O)N[C@@H](CC(=O)O)C(=O)N[C@@H](CO)C(=O)N[C@@H](CC(C)C)C(=O)N[C@H](C(=O)N[C@@H](CCC(=O)O)C(=O)N[C@@H](CCSC)C(=O)N[C@@H](Cc1ccc(O)cc1)C(=O)O)[C@@H](C)O)C(C)C [IVDSLTEMY] (H-IVDSLTEMY-OH)
Recognition (killing) of the peptide loaded EBV-LCL cells by the CTL clone HLA-A1 HY: not recognized

CC[C@H](C)[C@H](N)C(=O)N[C@H](C(=O)N[C@@H](CC(=O)O)C(=O)N[C@@H](CO)C(=O)N[C@@H](CC(C)C)C(=O)N[C@H](C(=O)N[C@@H](CCC(=O)O)C(=O)N[C@@H](CCSC)C(=O)N[C@@H](Cc1ccc(O)cc1)C(=O)N[C@@H](Cc1ccc(O)cc1)C(=O)O)[C@@H](C)O)C(C)C [IVDSLTEMYY] (H-IVDSLTEMYY-OH)
Recognition (killing) of the peptide loaded EBV-LCL cells by the CTL clone HLA-A1 HY: not recognized
